Results are given in words; binding and its absence hold for the method and conditions named. Some binding calls cover weakened binding; strength is not graded here.
T1: human sclerostin tryptic peptide T20.6 (human)
T1 sequence 1: DVSEYSCRELHFTR
T1 sequence 2: SAKPVTELVCSGQCGPAR
T1 sequence 3: WWRPSGPDFRCIPDRY
T1 sequence 4: LVASCKCKRLTR

T2: rat sclerostin peptide KWWRPNGPDFRCIPDRYRAQRV (rat)
T2 construct: Coupled to the plate through its cysteine
T2 peptide: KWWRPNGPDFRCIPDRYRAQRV

B1: Antibody D (antibody, mouse IgG1, kappa, V domains shown)
VH: EVQLQQSGPELVTPGASVKISCKASGYTFTDHYMSWVKQSHGKSLEWIGDINPYSGETTYNQKFKGTATLTVDKSSSIAYMEIRGLTSEDSAVYYCARDDYDASPFAYWGQGTLVTVSA
VL: DVQMIQSPSSLSASLGDIVTMTCQASQGTSINLNWFQQKPGKAPKLLIYGSSNLEDGVPSRFSGSRYGTDFTLTISSLEDEDLATYFCLQHSYLPYTFGGGTKLEIKR
B2: Antibody C (antibody, mouse IgG1, kappa, V domains shown)
VH: EVQLQQSGPELVKPGTSVKMSCKASGYTFTDCYMNWVKQSHGKSLEWIGDINPFNGGTTYNQKFKGKATLTVDKSSSTAYMQLNSLTSDDSAVYYCARSHYYFDGRVPWDAMDYWGQGTSVTVSS
VL: DIVLTQSPASLTVSLGLRATISCKASQSVDYDGDSYMNWYQQKPGQPPKLLIYAASNLESGIPARFSGNGSGTDFTLNIHPVEEEDAVTYYCQQSNEDPWTFGGGTKLEIKR
B3: Antibody 19 (antibody, V domains shown)
VH: EVQLQQSGPELVKPGASVKMSCKASGFTFTDYIMHWVKQKPGQGLEWIGYINPYNDDTEYNEKFKGKATLTSDKSSSTAYMDLSSLTSEGSAVYYCARSIYYYDAPFAYWGQGTLVTVSS
VL: DIQMTQTTSSLSASLGDRVNISCRASQDISSYLNWYQQKPDGTVKLLIYSTSRLNSGVPSRFSGSGSGTDYSLTISNLAQEDIATYFCQQDIKHPTFGGGTKLELKR
notes: also called Ab-19

Legend:
[1] = biological target: T1, human sclerostin tryptic peptide T20.6 (human); test: Biacore peptide epitope competition binding assay
[2] = biological target: T1, human sclerostin tryptic peptide T20.6 (human); test: Biacore peptide epitope competition binding assay (FIG. 18)
[3] = biological target: T1, human sclerostin tryptic peptide T20.6 (human); test: Biacore human sclerostin peptide epitope competition binding assay: 2 nM Mab preincubated with 20 nM sclerostin or peptide in solution, then injected over immobilised mature human sclerostin; a lost response means the Mab bound the competitor in solution
[4] = biological target: T1, human sclerostin tryptic peptide T20.6 (human); test: Biacore peptide epitope competition binding assay (FIG. 17)
[5] = biological target: T2, rat sclerostin peptide …; test: ELISA on rat sclerostin peptides coupled to sulfhydryl binding plates, antibody at 1 ug/ml
Protocol: A series of overlapping peptides (each peptide being approximately 20-25 amino acids long) were synthesized based on the known amino acid sequence of rat sclerostin (SEQ ID NO:98). […] This enabled the peptides to be bound to the assay plates by covalent coupling, using commercially available sulfhydryl binding plates (Costar), at a concentration of […], in phosphate buffered saline (PBS: pH 6.5) containing 1 mM EDTA. Following incubation for 1 hour at room temperature, the plates were washed three times with PBS containing 0.5% Tween 20. The plates were blocked by incubation with a PBS solution containing 0.5% fish skin gelatin (Sigma) for 30 minutes at room temperature and then washed three times in PBS containing 0.5% Tween 20.
Antibodies to be tested were diluted to 1 μg/ml in PBS containing 0.5% fish skin gelatin and incubated with the peptide-coated plates for 1 hour at room temperature. Excess antibody was removed by three washes with PBS, 0.5% Tween 20. […] Finally the plates were incubated with a horseradish peroxidase chromogenic substrate (TMB-Stable Stop, RDI) for 5 minutes at room temperature, the color development was stopped with acid, and the plates' optical density measured at 450 nm.

Binder | binding [1] | binding [2] | binding [3] | binding [4] | binding [5]
B1 | binds | binds | binds |  | 
B2 | binds |  | binds | binds | 
B3 |  |  |  |  | binds

Reference: US20070110747A1 (Amgen, published 2007)
